Out of some 580,000 compounds screened, about 6,100 (1.1%) were called active. Inconclusive means that the source gave no clear call. Such entries were picked first, then a sample of the others. Calls come from the whole dose curve; as a rule, active = well fitted inhibition curve with a large enough effect; inconclusive = small, poorly fitted or top-dose-only effect, or another doubt; inactive = no such curve, though single readings can be large or run the other way. A potency beside an inconclusive call is a rough fit, not a confirmed value.
biological target: Polyunsaturated fatty acid lipoxygenase ALOX12 (Homo sapiens) (UniProt P18054); test: Primary qHTS assay for inhibitors of human arachidonate 12S-lipoxygenase (ALOX12): Round 2; details: purified 12hLO, xylenol orange hydroperoxide absorbance; activity change, negative = inhibition: at 108 µM (top of the series) unless noted
In short: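 Purified human 12hLO at 150 nM in 25 mM Hepes, 0.01% Triton X-100, pH 7.0, preincubated 15 min at room temperature with compound. Reaction started with 40 uM arachidonic acid, 30 min at room temperature. Hydroperoxide measured by Fe-xylenol orange, 573/405 nm absorbance ratio.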
% is set by controls: 0 for no effect and ±100 for the full control effect; potency is the fitted concentration of half-maximal effect.

Amino acid sequences for entries named in this document (tags omitted). A change or cut given only in a name is not applied to a line headed by its entry.
UniProt P18054: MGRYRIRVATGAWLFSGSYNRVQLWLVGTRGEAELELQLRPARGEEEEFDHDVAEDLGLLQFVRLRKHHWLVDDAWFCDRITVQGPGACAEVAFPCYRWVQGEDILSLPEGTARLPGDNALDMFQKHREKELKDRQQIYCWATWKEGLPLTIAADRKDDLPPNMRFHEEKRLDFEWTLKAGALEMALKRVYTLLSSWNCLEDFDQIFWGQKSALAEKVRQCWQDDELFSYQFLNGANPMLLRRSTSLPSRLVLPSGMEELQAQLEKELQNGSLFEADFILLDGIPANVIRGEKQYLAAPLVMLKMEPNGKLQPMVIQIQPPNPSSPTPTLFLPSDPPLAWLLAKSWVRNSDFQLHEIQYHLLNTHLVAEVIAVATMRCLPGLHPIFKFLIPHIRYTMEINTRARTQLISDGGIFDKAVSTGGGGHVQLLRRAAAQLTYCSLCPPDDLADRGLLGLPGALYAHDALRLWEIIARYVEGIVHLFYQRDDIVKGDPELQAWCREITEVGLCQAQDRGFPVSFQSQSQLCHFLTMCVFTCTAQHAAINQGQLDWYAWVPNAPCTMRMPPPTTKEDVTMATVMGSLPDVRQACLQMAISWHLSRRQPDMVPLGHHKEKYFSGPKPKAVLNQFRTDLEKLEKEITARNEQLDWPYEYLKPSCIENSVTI

Row | Structure (SMILES) | Potency | activity change, negative = inhibition
1 | O=C(O)CCC(=O)N1N=C(c2ccc(Br)cc2)CC1c1ccc(Br)cc1 (stereo not drawn) | inconclusive: 39.8 µM [inhibitor, partial curve, poor fit] | –
2 | Cc1ccc(N2NC3(CCCCCC3)NC2=S)cc1 | active: 1 µM | –
3 | O=C(Nc1ccccc1C(=O)O)c1cccc(S(=O)(=O)Nc2ccc(Br)cc2)c1 | active: 15.8 µM | –
4 | CC(=O)OCC(=O)Nc1ccc(C(C)=O)cc1 | inconclusive: 79.4 µM [inhibitor, partial curve, poor fit] | –
5 | COC(=O)C1=CN(c2ccc(F)cc2)C(N)=C(C#N)C1c1cccc(F)c1 (stereo not drawn) | inconclusive: 50.1 µM [inhibitor, partial curve, poor fit] | –
6 | COc1cc(OC)cc(C(=O)N2CCC3(CC2)NC(=O)N(c2cccc(Cl)c2)N3)c1 | active: 1.26 µM | –
7 | S=c1sc(SCCOc2ccccc2)nn1-c1ccccc1 | inconclusive: 126 µM [inhibitor, partial curve, poor fit] | –
8 | CCN1CCN(c2nc3c(c(=O)[nH]c(=O)n3C)n2CC(O)COc2ccccc2)CC1 (stereo not drawn) | inconclusive: 39.8 µM [inhibitor, partial curve, poor fit] | –
9 | CC(C)Cn1c(SCC(=O)NC(=O)NC2CCCC2)nc2ccccc21 | – | inactive: -17.7%
10 | COc1ccc(C(=O)OCCOc2ccc(C#N)cc2)cc1F | inconclusive: 1.41 µM [inhibitor, full curve] | –
11 | Cc1ccc(C(NC(=O)C2CCCCC2)c2c(O)ccc3ccccc23)cc1 (stereo not drawn) | – | inactive: 3.27%
12 | COc1ccccc1C(=O)Oc1ccc(NC(=O)Cc2nn(C)c(=O)c3ccccc23)cc1 | – | inactive: 4.34%
13 | Cc1ccc(-n2nc(C)c([C@H]3C=C[C@@H](OC(=O)Nc4cccc(C(F)(F)F)c4)C3)c2C)cc1Cl | – | inactive: -4.7%
14 | Cc1ccc(C(C)(O)CS(=O)(=O)Cc2ccccc2Cl)cc1 (stereo not drawn) | inconclusive: 39.8 µM [inhibitor, partial curve, poor fit] | –
15 | CCC(c1nnnn1Cc1ccco1)N(Cc1cc2cc(C)cc(C)c2[nH]c1=O)CC1CCCO1 (stereo not drawn) | inconclusive: 5.01 µM [inhibitor, partial curve, poor fit] | –
16 | O=C(CN1CCC(C(=O)c2ccc3c(c2)OCCO3)CC1)Nc1ccccc1F | – | inactive: 12.5%
17 | C(=N\n1cnnc1)/c1cccnc1 | inconclusive: 31.6 µM [inhibitor, partial curve, poor fit] | –
18 | O=C(OCC(=O)N1CCC(Cc2ccccc2)CC1)c1ccccc1O | inconclusive: 63.1 µM [inhibitor, partial curve, poor fit] | –
19 | CCOC(=O)COn1c(=O)c(-c2ccco2)[n+]([O-])c2ccccc21 | – | inactive: -6.02% [at 57.4 µM]
20 | COc1ccc(CC(N)c2csc(NC(=O)Nc3ccc(OC)cc3)n2)cc1 (stereo not drawn) | – | inactive: -26.1%
21 | COc1ccc(C(=O)CNc2ccccc2C#N)cc1 | inconclusive: 100 µM [inhibitor, single point] | –

Three structures already listed, sorted by count of non-hydrogen atoms, descending:
Row | Structure (SMILES) | Potency | activity change, negative = inhibition
13 | Cc1ccc(-n2nc(C)c([C@H]3C=C[C@@H](OC(=O)Nc4cccc(C(F)(F)F)c4)C3)c2C)cc1Cl | – | inactive: -4.7%
3 | O=C(Nc1ccccc1C(=O)O)c1cccc(S(=O)(=O)Nc2ccc(Br)cc2)c1 | active: 15.8 µM | –
18 | O=C(OCC(=O)N1CCC(Cc2ccccc2)CC1)c1ccccc1O | inconclusive: 63.1 µM [inhibitor, partial curve, poor fit] | –

(next part)

Row | Structure (SMILES) | Potency | activity change, negative = inhibition
22 | O=C(CN1CCCc2ccccc21)Nc1cccc(S(=O)(=O)N2CCOCC2)c1 | – | inactive: 63.5%
23 | CN(C)c1ccc(CNC(=O)C2(C)Cc3c(-c4ccccc4)ccnc3O2)cc1 (stereo not drawn) | inconclusive: 44.7 µM [inhibitor, partial curve, poor fit] | –
24 | CCc1cc(=O)n(CC(=O)Nc2ccc(OC)c(OC)c2)c(-c2cccc(F)c2)n1 | inconclusive: 7.08 µM [inhibitor, full curve, poor fit] | –
25 | Cc1ccc(S(=O)(=O)NCCc2ccc(S(N)(=O)=O)cc2)cc1 | inconclusive: 35.5 µM [inhibitor, partial curve, poor fit] | –
26 | O=C(CSc1nnc2n1CCCN2)c1ccccc1 | inconclusive: 126 µM [inhibitor, single point] | –
27 | CCN1CCn2c3c(c4cc(C)ccc42)CCCC31 (stereo not drawn) | inconclusive: 28.2 µM [inhibitor, single point] | –
28 | CN(C)CCN(CC1CCCCC1)C(=O)Nc1ccc(Cl)cc1 | inconclusive: 31.6 µM [inhibitor, partial curve, poor fit] | –
29 | CC(C)(C)c1ccc(OCc2ccc(C(=O)N/N=C/c3ccc(O)c(O)c3)cc2)cc1 | inconclusive: 50.1 µM [inhibitor, partial curve, poor fit] | –
30 | CC(=O)OC(C(=O)NC1CCCCC1)c1ccc(C#N)cc1 (stereo not drawn) | inconclusive: 63.1 µM [inhibitor, partial curve, poor fit] | –
31 | COC(=O)c1ccc(COC(=O)c2csc3c2CCCC3)o1 | inconclusive: 126 µM [inhibitor, single point] | –
32 | O=C(Cc1csc(-c2ccccc2Cl)n1)Nc1nc2c(s1)CCCCC2 | inconclusive: 112 µM [inhibitor, single point] | –
33 | O=C(CCl)N(CCCNC(=O)C(F)(F)F)c1ccc([N+](=O)[O-])cc1 | inconclusive: 5.62 µM [inhibitor, full curve, poor fit] | –
34 | CCN(CC)CCNC(CC(=O)Nc1ccc(Cl)cc1Cl)C(=O)O (stereo not drawn) | – | inactive: 13.5%
35 | O=C1CCCc2c1cc(-c1ccccc1)n2-c1ccc(O)cc1 | inconclusive: 89.1 µM [inhibitor, partial curve, poor fit] | –
36 | Cc1nc2sc(C(=O)N(C)Cc3ccccc3)c(NC(=O)c3ccccc3)c2c(C)c1Cl | inconclusive: 100 µM [inhibitor, partial curve, poor fit] | –
37 | CN(C)c1ccc(C(=O)N2CC[C@@H](CC(=O)O)[C@@H](CCN3C[C@@H]4C[C@H](C3)c3cccc(=O)n3C4)C2)cc1 | inconclusive: 17.8 µM [inhibitor, full curve] | –
38 | COc1ccc(N(C(C)C(=O)Nc2cccnc2)S(C)(=O)=O)cc1 (stereo not drawn) | – | inactive: -22.4%
39 | Cc1cc(NC(=O)Nc2c[nH]c(=O)[nH]c2=O)ccc1Br | inconclusive: 50.1 µM [inhibitor, single point] | –
40 | O=C(c1ccc2ncsc2c1)N(Cc1ccco1)Cc1cccs1 | – | inactive: -0.454%
41 | O=C(N[C@@H](Cc1ccc(O)cc1)C(=O)O)c1cccnc1 | inconclusive: 39.8 µM [inhibitor, partial curve, poor fit] | –
42 | CCOc1ccc(CNC(=O)c2ccc(Sc3ccc(Cl)cc3)c(NC(C)=O)c2)cc1 | inconclusive: 10 µM [inhibitor, partial curve, poor fit] | –

Row | Structure (SMILES) | Potency | activity change, negative = inhibition
43 | Cc1cc(C(=O)CSc2ccc(Br)cc2)c(C)[nH]1 | inconclusive: 22.4 µM [inhibitor, full curve, poor fit] | –
44 | COc1cccc(NC(=S)NC2CC(C)CC(C)(C)C2)c1 (stereo not drawn) | inconclusive: 39.8 µM [inhibitor, partial curve, poor fit] | –
45 | CCCC(=O)Nc1ccc2c(c1)nc(CN1CCN(C(=O)OCC)CC1)n2C(C)C | – | inactive: -0.103%
46 | Cc1ccc(S(=O)(=O)N2CCC(C(=O)N3CCC(CCc4ccccc4)CC3)CC2)c(C)c1 | inconclusive: 79.4 µM [inhibitor, partial curve, poor fit] | –
47 | COc1ccc(NC(=O)CSc2cn(CC(=O)N3CCCCC3)c3ccccc23)c(OC)c1 | inconclusive: 0.447 µM [inhibitor, full curve, poor fit] | –
48 | COc1cc(CN(CC2CCCO2)C(=O)COc2ccc(Cl)cc2C)cc(OC)c1OC (stereo not drawn) | – | inactive: 12.6%
49 | COc1cccc(NC(=O)CN(C)C(=O)C(CCSC)NC(=O)c2ccco2)c1 (stereo not drawn) | inconclusive: 89.1 µM [inhibitor, single point] | –
50 | CC(=O)OCC1=C(C(=O)O)N2C(=O)C(NC(=O)C(C)Cn3nc(C)c(Cl)c3C)C2SC1 (stereo not drawn) | inconclusive: 56.2 µM [inhibitor, partial curve, poor fit] | –
51 | CCn1cnc2c1c(=O)n(CC(=O)NCC1(c3ccccc3)CCCC1)c(=O)n2Cc1ccccc1 | inconclusive: 39.8 µM [inhibitor, partial curve, poor fit] | –
52 | Cc1ccc(NC(=O)CSc2nc3ccc(NC(=O)c4ccco4)cc3s2)cc1 | inconclusive: 158 µM [inhibitor, partial curve, poor fit] | –
53 | CC(C)(C)C1CCC2(CC1)NC(=O)N(CC(=O)N1CCN(c3ccc(F)cc3)CC1)C2=O (stereo not drawn) | inconclusive: 79.4 µM [inhibitor, partial curve] | –
54 | COCCNC(=S)Nc1ccc2nc(N3CCOCC3)cc(C)c2c1 | inconclusive: 100 µM [inhibitor, single point] | –
55 | CC(C)c1ccc(C2C3=C(CC(C)(C)CC3=O)Nc3c2c(=O)n(C)c(=O)n3C)cc1 (stereo not drawn) | inconclusive: 44.7 µM [inhibitor, partial curve, poor fit] | –
56 | CC(C)Oc1ccc(CNC(=S)Nc2ccccc2)cc1Cl | inconclusive: 20 µM [inhibitor, partial curve, poor fit] | –
57 | COc1ccc(CN2CCC(Cc3ccccc3)CC2)c(C)c1C | inconclusive: 11.2 µM [inhibitor, full curve, poor fit] | –
58 | Cc1ccccc1C(=O)N1CCC(C(=O)Nc2ccccc2Cl)CC1 | – | inactive: 172%
59 | O=C(/C=C/c1ccc(Br)o1)NC(c1ccccc1)c1ccccc1 | inconclusive: 50.1 µM [inhibitor, partial curve, poor fit] | –
60 | Cc1ccc(NC(=O)CSc2nc(=O)n(Cc3ccccn3)c3c2CCC3)cc1F | inconclusive: 141 µM [inhibitor, partial curve, poor fit] | –
61 | COc1ccc(N2CCN(CCCNC(=O)CN3C(=O)COc4ccccc43)CC2)cc1 | inconclusive: 0.501 µM [inhibitor, full curve, poor fit] | –
62 | Cc1nc(C(=O)O)sc1C1(C)CC(c2cccc([N+](=O)[O-])c2)=NO1 (stereo not drawn) | inconclusive: 56.2 µM [inhibitor, partial curve, poor fit] | –
63 | CCOc1ccc(CN2CCCN(C)CC2)cc1 | inconclusive: 0.316 µM [inhibitor, full curve, poor fit] | –

Source: PubChem BioAssay AID1671190 (National Center for Advancing Translational Sciences (NCATS), 2021)
